Assay results as given in the supplement of paper PMC10849652.
The other results are listed elsewhere or left out.

Chains of the proteins cited; added tags and fusions are not shown. Lines headed by an entry give the natural chain unless they say otherwise; changes in a name come on top.
UniProt P62834: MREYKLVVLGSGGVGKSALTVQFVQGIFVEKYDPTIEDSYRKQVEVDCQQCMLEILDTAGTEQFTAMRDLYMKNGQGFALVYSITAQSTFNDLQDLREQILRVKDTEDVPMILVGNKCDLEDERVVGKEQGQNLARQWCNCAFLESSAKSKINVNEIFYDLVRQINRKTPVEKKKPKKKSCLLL
UniProt Q53S08: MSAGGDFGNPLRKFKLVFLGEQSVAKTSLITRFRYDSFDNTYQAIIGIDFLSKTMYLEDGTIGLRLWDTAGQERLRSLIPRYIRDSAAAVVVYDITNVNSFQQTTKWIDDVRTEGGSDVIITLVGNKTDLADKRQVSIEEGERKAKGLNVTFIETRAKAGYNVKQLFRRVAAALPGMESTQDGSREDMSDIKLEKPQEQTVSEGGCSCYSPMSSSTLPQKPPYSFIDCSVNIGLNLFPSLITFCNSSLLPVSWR
UniProt Q9H2T7: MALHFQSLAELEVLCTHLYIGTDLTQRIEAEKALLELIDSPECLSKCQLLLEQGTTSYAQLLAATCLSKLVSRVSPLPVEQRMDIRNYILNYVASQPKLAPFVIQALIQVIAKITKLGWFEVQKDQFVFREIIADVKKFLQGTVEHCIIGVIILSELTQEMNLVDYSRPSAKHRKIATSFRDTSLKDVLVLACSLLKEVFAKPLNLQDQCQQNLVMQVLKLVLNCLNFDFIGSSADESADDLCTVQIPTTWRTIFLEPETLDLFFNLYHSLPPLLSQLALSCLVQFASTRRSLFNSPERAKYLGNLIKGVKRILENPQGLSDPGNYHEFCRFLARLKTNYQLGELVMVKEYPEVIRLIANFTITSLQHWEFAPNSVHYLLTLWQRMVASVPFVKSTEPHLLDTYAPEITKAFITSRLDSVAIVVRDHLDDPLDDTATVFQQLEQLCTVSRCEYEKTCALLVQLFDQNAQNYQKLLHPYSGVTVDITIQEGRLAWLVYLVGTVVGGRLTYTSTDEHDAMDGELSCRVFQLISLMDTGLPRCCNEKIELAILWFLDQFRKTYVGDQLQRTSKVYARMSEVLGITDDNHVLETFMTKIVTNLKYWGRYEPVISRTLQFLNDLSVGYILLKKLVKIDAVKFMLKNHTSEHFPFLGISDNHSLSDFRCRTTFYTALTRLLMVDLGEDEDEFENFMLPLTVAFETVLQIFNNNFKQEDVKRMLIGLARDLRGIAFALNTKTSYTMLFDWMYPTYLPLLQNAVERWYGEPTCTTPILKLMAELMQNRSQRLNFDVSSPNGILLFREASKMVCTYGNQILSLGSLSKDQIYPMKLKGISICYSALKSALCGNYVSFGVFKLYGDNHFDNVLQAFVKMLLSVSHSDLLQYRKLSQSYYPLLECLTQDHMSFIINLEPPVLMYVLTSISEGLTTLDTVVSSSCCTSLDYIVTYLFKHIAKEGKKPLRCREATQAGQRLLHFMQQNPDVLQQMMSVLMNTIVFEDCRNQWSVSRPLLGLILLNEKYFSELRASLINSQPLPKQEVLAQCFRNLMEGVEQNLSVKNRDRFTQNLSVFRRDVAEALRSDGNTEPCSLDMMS
UniProt Q8N0T1: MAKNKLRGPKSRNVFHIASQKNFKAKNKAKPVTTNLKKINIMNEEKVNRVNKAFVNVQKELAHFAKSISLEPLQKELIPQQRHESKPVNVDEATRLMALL
UniProt Q9BTL3: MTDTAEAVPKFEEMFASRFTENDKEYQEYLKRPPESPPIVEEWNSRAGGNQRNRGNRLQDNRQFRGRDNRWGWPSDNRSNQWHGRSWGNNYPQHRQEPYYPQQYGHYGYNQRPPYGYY
UniProt P54136: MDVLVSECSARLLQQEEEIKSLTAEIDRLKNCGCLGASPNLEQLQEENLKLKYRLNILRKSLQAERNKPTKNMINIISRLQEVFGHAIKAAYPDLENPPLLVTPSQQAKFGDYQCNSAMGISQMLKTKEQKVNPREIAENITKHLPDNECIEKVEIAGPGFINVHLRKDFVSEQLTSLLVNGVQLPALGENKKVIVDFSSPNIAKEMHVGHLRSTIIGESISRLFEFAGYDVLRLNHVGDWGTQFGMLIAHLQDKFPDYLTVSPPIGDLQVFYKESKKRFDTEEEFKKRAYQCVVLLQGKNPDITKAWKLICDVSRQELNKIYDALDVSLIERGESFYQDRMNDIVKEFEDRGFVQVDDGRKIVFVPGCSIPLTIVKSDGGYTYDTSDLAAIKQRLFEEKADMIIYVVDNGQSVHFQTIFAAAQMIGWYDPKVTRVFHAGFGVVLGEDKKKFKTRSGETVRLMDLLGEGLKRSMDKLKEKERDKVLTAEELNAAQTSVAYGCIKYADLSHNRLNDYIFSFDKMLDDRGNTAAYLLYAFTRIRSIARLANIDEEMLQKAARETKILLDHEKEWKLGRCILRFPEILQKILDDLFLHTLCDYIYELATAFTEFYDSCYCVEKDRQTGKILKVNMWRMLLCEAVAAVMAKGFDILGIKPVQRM
UniProt Q16576, whole entry, looked up: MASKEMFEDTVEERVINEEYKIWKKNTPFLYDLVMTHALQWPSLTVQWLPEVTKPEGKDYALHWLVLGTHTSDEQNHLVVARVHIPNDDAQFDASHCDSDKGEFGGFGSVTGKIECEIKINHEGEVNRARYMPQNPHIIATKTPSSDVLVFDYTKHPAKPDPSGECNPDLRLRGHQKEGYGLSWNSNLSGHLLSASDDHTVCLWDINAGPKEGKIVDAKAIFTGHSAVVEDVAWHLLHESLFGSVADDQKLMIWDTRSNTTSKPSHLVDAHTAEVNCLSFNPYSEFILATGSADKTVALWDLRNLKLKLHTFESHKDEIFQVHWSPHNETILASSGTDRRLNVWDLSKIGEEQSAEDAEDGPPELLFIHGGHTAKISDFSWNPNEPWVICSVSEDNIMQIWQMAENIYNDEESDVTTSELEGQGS
UniProt Q96EV2: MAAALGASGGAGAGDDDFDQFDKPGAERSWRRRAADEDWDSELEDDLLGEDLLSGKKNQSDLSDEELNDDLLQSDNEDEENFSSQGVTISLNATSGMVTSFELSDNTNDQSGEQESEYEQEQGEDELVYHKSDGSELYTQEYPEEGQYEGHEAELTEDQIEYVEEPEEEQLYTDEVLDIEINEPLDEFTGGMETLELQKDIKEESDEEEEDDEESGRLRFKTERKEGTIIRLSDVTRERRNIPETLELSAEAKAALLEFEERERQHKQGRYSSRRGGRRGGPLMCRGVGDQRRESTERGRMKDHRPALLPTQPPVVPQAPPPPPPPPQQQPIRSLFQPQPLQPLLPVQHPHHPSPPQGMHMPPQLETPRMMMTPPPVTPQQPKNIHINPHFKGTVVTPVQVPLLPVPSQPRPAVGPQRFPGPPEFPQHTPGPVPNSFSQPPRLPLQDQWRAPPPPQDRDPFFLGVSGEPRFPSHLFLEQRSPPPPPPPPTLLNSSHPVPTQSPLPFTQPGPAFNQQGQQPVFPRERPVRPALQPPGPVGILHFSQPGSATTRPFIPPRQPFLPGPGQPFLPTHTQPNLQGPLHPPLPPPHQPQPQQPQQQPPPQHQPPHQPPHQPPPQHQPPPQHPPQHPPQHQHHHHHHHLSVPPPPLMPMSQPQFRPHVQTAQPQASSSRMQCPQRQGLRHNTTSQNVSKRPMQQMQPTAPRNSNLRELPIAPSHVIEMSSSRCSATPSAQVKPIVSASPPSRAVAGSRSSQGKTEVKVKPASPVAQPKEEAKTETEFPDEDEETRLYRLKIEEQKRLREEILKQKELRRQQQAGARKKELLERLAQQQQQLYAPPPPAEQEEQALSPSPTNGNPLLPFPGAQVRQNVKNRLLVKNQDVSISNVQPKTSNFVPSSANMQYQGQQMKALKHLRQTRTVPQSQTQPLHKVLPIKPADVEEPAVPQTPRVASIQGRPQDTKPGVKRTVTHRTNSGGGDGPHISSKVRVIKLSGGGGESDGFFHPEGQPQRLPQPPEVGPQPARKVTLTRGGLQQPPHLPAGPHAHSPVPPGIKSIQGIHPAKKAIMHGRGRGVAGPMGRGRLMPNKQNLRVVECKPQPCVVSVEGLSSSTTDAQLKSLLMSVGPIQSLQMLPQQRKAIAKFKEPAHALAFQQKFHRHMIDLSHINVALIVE
UniProt P61224: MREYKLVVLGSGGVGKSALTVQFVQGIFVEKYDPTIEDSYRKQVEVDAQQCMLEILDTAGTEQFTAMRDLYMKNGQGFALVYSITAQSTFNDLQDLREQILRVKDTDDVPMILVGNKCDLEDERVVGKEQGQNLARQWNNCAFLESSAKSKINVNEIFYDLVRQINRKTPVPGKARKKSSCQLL
UniProt P61006: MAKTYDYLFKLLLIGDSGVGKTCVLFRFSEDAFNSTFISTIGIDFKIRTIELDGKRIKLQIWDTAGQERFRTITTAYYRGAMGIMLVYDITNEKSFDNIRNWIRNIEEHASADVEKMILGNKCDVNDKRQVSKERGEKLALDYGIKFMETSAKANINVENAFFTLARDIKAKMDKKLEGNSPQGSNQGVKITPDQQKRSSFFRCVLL
UniProt P51148: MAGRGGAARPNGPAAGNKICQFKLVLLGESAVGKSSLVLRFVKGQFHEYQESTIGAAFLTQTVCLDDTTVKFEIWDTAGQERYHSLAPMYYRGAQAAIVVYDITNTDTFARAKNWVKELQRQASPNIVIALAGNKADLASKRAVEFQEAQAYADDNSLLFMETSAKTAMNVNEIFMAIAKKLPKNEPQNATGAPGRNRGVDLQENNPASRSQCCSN
UniProt Q99638: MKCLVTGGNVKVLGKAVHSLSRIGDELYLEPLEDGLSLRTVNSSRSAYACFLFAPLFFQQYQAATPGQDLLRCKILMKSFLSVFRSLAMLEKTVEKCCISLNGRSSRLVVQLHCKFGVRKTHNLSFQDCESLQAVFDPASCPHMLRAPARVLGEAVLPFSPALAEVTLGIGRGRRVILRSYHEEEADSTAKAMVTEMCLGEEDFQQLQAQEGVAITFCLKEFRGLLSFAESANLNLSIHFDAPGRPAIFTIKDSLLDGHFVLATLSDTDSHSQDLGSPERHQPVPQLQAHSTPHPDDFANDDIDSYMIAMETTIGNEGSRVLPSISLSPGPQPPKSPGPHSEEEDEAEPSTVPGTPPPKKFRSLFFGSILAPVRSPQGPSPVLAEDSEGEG
UniProt Q9UJ41, whole entry, looked up: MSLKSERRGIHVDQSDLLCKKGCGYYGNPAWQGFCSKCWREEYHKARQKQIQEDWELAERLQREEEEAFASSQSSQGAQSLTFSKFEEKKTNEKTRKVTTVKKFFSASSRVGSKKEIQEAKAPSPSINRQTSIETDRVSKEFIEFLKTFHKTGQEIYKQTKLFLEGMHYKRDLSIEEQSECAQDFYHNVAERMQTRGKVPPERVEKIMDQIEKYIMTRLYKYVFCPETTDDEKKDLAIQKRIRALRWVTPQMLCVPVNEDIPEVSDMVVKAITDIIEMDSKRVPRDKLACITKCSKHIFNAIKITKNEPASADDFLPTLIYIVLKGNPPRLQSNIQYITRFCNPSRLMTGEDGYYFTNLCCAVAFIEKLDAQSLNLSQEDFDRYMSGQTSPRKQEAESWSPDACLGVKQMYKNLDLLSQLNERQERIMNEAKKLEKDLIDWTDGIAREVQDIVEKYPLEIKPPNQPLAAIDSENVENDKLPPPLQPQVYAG
UniProt Q5HYI8: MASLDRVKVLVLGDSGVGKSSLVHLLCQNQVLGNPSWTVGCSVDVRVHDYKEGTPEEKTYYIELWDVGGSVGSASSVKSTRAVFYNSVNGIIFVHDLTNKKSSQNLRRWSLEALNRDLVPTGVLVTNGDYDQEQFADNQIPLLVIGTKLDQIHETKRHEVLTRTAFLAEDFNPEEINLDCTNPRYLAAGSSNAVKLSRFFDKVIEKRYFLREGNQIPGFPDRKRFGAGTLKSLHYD
UniProt O95716: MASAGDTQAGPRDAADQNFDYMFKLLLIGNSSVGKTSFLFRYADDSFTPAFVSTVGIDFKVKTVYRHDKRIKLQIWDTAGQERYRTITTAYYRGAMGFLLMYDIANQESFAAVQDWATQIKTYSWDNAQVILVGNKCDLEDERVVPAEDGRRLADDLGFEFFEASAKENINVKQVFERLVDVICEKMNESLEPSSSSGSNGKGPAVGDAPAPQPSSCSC
UniProt P54727: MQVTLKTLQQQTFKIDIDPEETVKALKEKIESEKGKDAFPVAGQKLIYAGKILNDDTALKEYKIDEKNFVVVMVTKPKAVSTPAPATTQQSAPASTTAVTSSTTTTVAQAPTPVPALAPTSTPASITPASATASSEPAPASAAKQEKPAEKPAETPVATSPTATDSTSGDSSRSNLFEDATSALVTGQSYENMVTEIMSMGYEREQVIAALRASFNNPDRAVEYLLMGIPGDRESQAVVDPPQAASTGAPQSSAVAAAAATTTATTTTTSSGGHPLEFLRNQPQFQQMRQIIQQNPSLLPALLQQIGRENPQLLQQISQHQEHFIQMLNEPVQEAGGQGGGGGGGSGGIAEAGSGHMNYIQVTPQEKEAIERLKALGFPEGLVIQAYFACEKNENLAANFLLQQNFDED
UniProt P20336: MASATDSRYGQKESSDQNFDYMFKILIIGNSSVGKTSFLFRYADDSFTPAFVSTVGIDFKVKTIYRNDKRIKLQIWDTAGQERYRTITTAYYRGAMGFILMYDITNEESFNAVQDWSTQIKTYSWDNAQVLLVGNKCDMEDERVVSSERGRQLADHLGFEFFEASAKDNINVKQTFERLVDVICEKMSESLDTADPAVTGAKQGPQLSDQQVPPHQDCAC

Tests used:
Test in all cases: log2 fold change, soluble protein after heating vs DMSO (PISA); higher = thermal stabilisation; K562 cells, 10 uM, 30 min; active = over 0.2 and 3.5 SD of the protein, either way, in both replicates (recomputed)
[1] = compound: C1=CC=C(C=C1)[C@H](COC2=CC3=C(C=C2)NC(=O)N3)NC(=O)C4=CC=CN(C4=O)CC5=CC(=C(C=C5)F)F
Procedure, shortened: (§1)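 K562 cells (2×10^6 cells/mL) were treated with 10 μM compound for 30 min, and aliquots were heated for 3 min over 48°C-58°C. Pooled aliquots were extracted in PBS with 0.5% NP-40 at 4°C, and the supernatant after 21,000xg for 90 min was measured by TMTpro 16plex LC-MS/MS with channel sums equalised. Reported thermal stability, relative to control samples and from duplicates, is a log2 fold change.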

[2] = compound: CC1=C(SC2=C1C(=N[C@H](C3=NN=C(N32)C)CC(=O)N)C4=CC=C(C=C4)Cl)C
Procedure, shortened: as §1

[3] = compound: CC1=C2C(=CC=C1)N=C(N(C2=O)C3=CC=CC=C3C)CN4C=NC5=C(N=CN=C54)N
Procedure, shortened: as §1

[4] = compound: Cc1sc2c(c1C)C(c1ccc(Cl)cc1)=N[C@@H](CC(=O)OC(C)(C)C)c1nnc(C)n1-2
Procedure, shortened: as §1

[5] = compound: c1ccc([C@@H]2C[C@H]2NC2CCNCC2)cc1
Procedure, shortened: as §1

Measured: log2 fold change

RAB8B (UniProt Q92930)
inactive: [1] 0.004 | [2] -0.006 | [3] -0.222 | [4] 0.033 | [5] -0.062

RAB2A (UniProt P61019)
inactive: [1] 0.004 | [2] -0.044 | [3] 0.055 | [4] -0.02 | [5] 0.056

RAPGEF4 (UniProt Q8WZA2)
inactive: [1] -0.038 | [2] 0.152 | [3] 0.268 | [4] -0.028 | [5] -0.176

RAC3 (UniProt P60763)
inactive: [1] -0.006 | [2] 0.028 | [3] 0.029 | [4] -0.025 | [5] -0.147

RAP1A (UniProt P62834)
inactive: [1] -0.016 | [2] 0.024 | [3] -0.003 | [4] -0.024 | [5] -0.004

RAB18 (UniProt Q9NP72)
inactive: [1] 0.034 | [2] -0.03 | [3] 0.001 | [4] -0.003 | [5] 0.036

RAI1 (UniProt Q7Z5J4)
inactive: [1] 0.213

RAB3GAP1 (UniProt Q15042)
inactive: [1] -0.083 | [2] -0.084 | [3] 0.061 | [4] 0.046 | [5] 0.008

RAF1 isoform 2 (UniProt P04049)
inactive: [1] -0.08 | [2] 0.201 | [3] 0.222 | [4] -0.07 | [5] -0.105

RAB6D (UniProt Q53S08)
inactive: [1] 0.007 | [2] 0.036 | [3] 0.081 | [4] -0.058 | [5] 0.029

RALB isoform 2 (UniProt P11234)
inactive: [1] 0.004 | [2] 0.041 | [3] 0.019 | [4] -0.038 | [5] 0.015

RASSF5 (UniProt Q8WWW0)
inactive: [1] 0.02 | [2] -0.007 | [3] 0.132 | [4] 0.069 | [5] 0.015

3 consecutive entries from above, quoted:
RAB6D (UniProt Q53S08)
inactive: [1] 0.007 | [2] 0.036 | [3] 0.081 | [4] -0.058 | [5] 0.029

RALB isoform 2 (UniProt P11234)
inactive: [1] 0.004 | [2] 0.041 | [3] 0.019 | [4] -0.038 | [5] 0.015

RASSF5 (UniProt Q8WWW0)
inactive: [1] 0.02 | [2] -0.007 | [3] 0.132 | [4] 0.069 | [5] 0.015

The list continues:

RBL1 (UniProt P28749)
inactive: [1] 0.157

RAB5B (UniProt P61020)
inactive: [1] -0.005 | [2] -0.029 | [3] -0.025 | [4] -0.031 | [5] 0.022

RAB20 (UniProt Q9NX57)
inactive: [1] -0.032 | [2] 0.008 | [3] 0.001 | [4] 0.003 | [5] 0.013

RANBP17 (UniProt Q9H2T7)
inactive: [1] -0.032 | [2] 0.132 | [3] 0.04 | [4] 0.035 | [5] -0.254

RBIS (UniProt Q8N0T1)
inactive: [1] 0.035 | [2] -0.034 | [3] -0.02 | [4] 0.101 | [5] 0

RAB10 (UniProt P61026)
inactive: [1] 0.022 | [2] 0.001 | [3] 0.027 | [4] 0.019 | [5] -0.015

RAMAC (UniProt Q9BTL3)
inactive: [1] 0.078 | [2] -0.115 | [3] -0.012 | [4] 0.021 | [5] 0.081

RAB12, A0A3B3ITT1
inactive: [1] -0.003 | [2] 0.005 | [3] -0.008 | [4] -0.036 | [5] 0.011

RAB11B (UniProt Q15907)
inactive: [1] 0.02 | [2] -0.023 | [3] -0.085 | [4] 0.057 | [5] 0.077

RARS (UniProt P54136)
inactive: [1] -0.057 | [2] -0.081 | [3] -0.02 | [4] 0.169 | [5] 0.024

RAD51 (UniProt Q06609)
inactive: [1] -0.006 | [2] 0.142 | [3] -0.037 | [4] 0 | [5] -0.053

RAN (UniProt P62826)
inactive: [1] 0.006 | [2] -0.024 | [3] -0.013 | [4] 0.034 | [5] 0.037

RAPGEF1 isoform 3 (UniProt Q13905)
inactive: [1] -0.188

RBBP7 (UniProt Q16576)
inactive: [1] 0.024

RAB13 (UniProt P51153)
inactive: [1] -0.037 | [2] -0.046 | [3] -0.162 | [4] -0.016 | [5] -0.004

RAB19 isoform 2 (UniProt A4D1S5)
inactive: [1] 0.136

RAVER1 (UniProt E9PAU2)
inactive: [1] -0.138 | [2] -0.204 | [3] 0.283 | [4] -0.19 | [5] 0.053

RAD50, A0A494C0Y7
inactive: [1] -0.1 | [2] -0.003 | [3] 0.194 | [4] 0.104 | [5] 0.118

RAPGEF6 isoform 4 (UniProt Q8TEU7)
inactive: [1] -0.026 | [2] 0.091 | [3] -0.008 | [4] 0.283 | [5] -0.159

RBM33 (UniProt Q96EV2)
inactive: [1] 0.002 | [2] -0.018 | [3] 0.029 | [4] -0.004 | [5] 0.012

RAB6A isoform 2 (UniProt P20340)
inactive: [1] 0.007 | [2] 0.026 | [3] 0.037 | [4] 0 | [5] 0.014

RAP1B (UniProt P61224)
inactive: [1] -0.018 | [2] 0.042 | [3] -0.036 | [4] -0.027 | [5] 0.018

RBM12 (UniProt Q9NTZ6)
inactive: [1] -0.039 | [2] 0.023 | [3] 0.077 | [4] -0.064 | [5] -0.006

RAB8A isoform 2 (UniProt P61006)
inactive: [1] -0.005 | [2] 0.005 | [3] -0.041 | [4] -0.002 | [5] 0.022

RAB5C isoform 2 (UniProt P51148)
inactive: [1] -0.007 | [2] -0.009 | [3] -0.022 | [4] 0.011 | [5] 0.018

RAD50 isoform 2 (UniProt Q92878)
inactive: [1] -0.006 | [2] 0.017 | [3] 0.061 | [4] 0 | [5] 0.014

RAD9A (UniProt Q99638)
inactive: [1] -0.004 | [2] 0.031 | [3] -0.071 | [4] -0.03 | [5] -0.018

RABGEF1 isoform 3 (UniProt Q9UJ41)
inactive: [1] 0.018 | [2] -0.008 | [3] 0.039 | [4] 0.036 | [5] -0.009

RAC1 (UniProt P63000)
inactive: [1] -0.046 | [2] 0.017 | [3] -0.111 | [4] -0.098 | [5] 0.033

RABL3 (UniProt Q5HYI8)
inactive: [1] 0 | [2] 0.033 | [3] 0.034 | [4] -0.033 | [5] -0.01

RANBP3 (UniProt Q9H6Z4)
inactive: [1] 0.023 | [2] 0.024 | [3] -0.017 | [4] -0.026 | [5] 0.044

RANBP10 (UniProt Q6VN20)
inactive: [1] -0.104 | [2] 0.019 | [3] 0.065 | [4] -0.046 | [5] 0.003

RACK1 (UniProt P63244)
inactive: [1] 0.014 | [2] 0.023 | [3] -0.01 | [4] -0.016 | [5] -0.047

RBM14 (UniProt Q96PK6)
inactive: [1] -0.111 | [2] -0.069 | [3] -0.004 | [4] 0.255 | [5] -0.008

RABGGTA (UniProt Q92696)
inactive: [1] -0.105 | [2] 0.084 | [3] 0.035 | [4] 0.014 | [5] -0.024

RAB3D (UniProt O95716)
inactive: [1] 0.023 | [2] -0.105 | [3] 0.007 | [4] -0.082 | [5] 0.201

RAD23B (UniProt P54727)
inactive: [1] 0.016 | [2] -0.002 | [3] -0.008 | [4] 0.027 | [5] -0.008

RAB5IF isoform 5 (UniProt Q9BUV8)
inactive: [1] 0.003 | [2] 0.101 | [3] 0.024 | [4] -0.08 | [5] 0.028

RAB3A (UniProt P20336)
inactive: [1] 0 | [2] -0.013 | [3] 0.094 | [4] -0.059 | [5] 0.021

RAB5A (UniProt P20339)
inactive: [1] 0.013 | [2] 0.024 | [3] -0.072 | [4] -0.018 | [5] 0.018

RAP2B (UniProt P61225)
inactive: [1] 0.001 | [2] 0.003 | [3] 0.027 | [4] 0.028 | [5] 0.037

RAB18 (UniProt H0Y6T8)
inactive: [1] -0.107 | [2] 0.019 | [3] 0.093 | [4] 0.163 | [5] 0.093

RAC2 (UniProt P15153)
inactive: [1] -0.037 | [2] -0.001 | [3] -0.028 | [4] 0.017 | [5] 0.017

RABGAP1L isoform 3 (UniProt Q5R372)
inactive: [1] 0.007 | [2] 0.024 | [3] 0.033 | [4] -0.015 | [5] -0.005
